Data as given in PubChem BioAssay AID1259275 (Sanger Institute, 2017)
The whole screen tested 794 reagents; below is a part drawn at random. Of all reagents, 13 (1.6%) are marked active. 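Calls mark knock-downs lethal by themselves, not drug synergy; drugs went in a day after transfection, with DMSO as vehicle.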 Viability is capped at 1. Not given: the amount of reagent, the time to read-out.

Aim: 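Kinome and custom colorectal gene library screened for lethal knock-downs and drug partners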 (primary screen)
System: COLO320HSR human colorectal cancer cells
Reagents: siRNA pool against human genes
Challenge: anchor drug added one day after transfection: BYL719 at 1 µM, cetuximab at 5 µg/ml or trametinib at 10 nM; DMSO as vehicle arm
Measured: 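Viability averaged over replicates as a fraction of the non-targeting pool, a robust z-score for knock-down alone, and synergy scores with BYL719 (1 µM), cetuximab (5 µg/ml) or trametinib (10 nM)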
Reading the numbers: robust z-score, siRNA alone: higher = more viable cells; strongly negative means essential; viability, knock-down alone (DMSO): higher = more viable cells; synergy score with BYL719 and synergy score with cetuximab and synergy score with trametinib: higher = stronger combined killing with drug
Call rule: 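a gene is called essential when its robust z-score without drug falls below -3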
Meaning of the calls: active = essential (siRNA alone); inactive = no change (siRNA alone)

robust z-score, siRNA alone | viability, knock-down alone (DMSO) (fraction of control) | synergy score with BYL719 | synergy score with cetuximab | synergy score with trametinib | activity call | gene symbol
0.373 | 0.968 | 0.0743 | 0.0569 | 0.0556 | inactive | PAK3
0.709 | 0.998 | -0.123 | -0.0151 | -0.0105 | inactive | AK4
-0.735 | 0.868 | -0.0885 | -0.0958 | -0.0914 | inactive | MAP3K6
0.726 | 1 | -0.296 | -0.0893 | -0.0259 | inactive | MERTK
0.726 | 1 | -0.195 | -0.0893 | -0.0259 | inactive | CAMKK2
-0.655 | 0.875 | -0.0883 | 0.0504 | -0.0584 | inactive | IPPK
0.726 | 1 | -0.129 | -0.0893 | -0.0259 | inactive | STK36
0.726 | 1 | -0.204 | -0.0893 | -0.0259 | inactive | FLT4
-0.144 | 0.921 | -0.115 | -0.137 | -0.102 | inactive | ROR1
-0.149 | 0.921 | -0.0805 | -0.143 | 0.012 | inactive | UCK2
0.209 | 0.953 | -0.123 | -0.132 | -0.0714 | inactive | PAK1
0.411 | 0.972 | 0.0762 | -0.115 | 0.0337 | inactive | PIK3CB
0.726 | 1 | -0.105 | -0.0893 | -0.0259 | inactive | SCYL1
0.453 | 0.975 | 0.0068 | -0.112 | -0.0309 | inactive | EPHA7
-2 | 0.754 | -0.102 | -0.173 | -0.0629 | inactive | STK39
0.726 | 1 | -0.281 | -0.0893 | -0.0259 | inactive | TP53BP1
0.726 | 1 | -0.0777 | -0.0893 | -0.0257 | inactive | SIK3
-3.12 | 0.653 | -0.0512 | -0.2 | -0.0916 | active | CTNNB1
0.197 | 0.952 | -0.028 | 0.0194 | 0.0107 | inactive | PINK1
0.726 | 1 | -0.176 | -0.0893 | 0.0548 | inactive | GK
-0.666 | 0.874 | -0.0562 | -0.0561 | -0.00989 | inactive | CAMK2B
0.726 | 1 | -0.184 | -0.0873 | -0.0259 | inactive | PIP4K2A
0.164 | 0.949 | -0.11 | -0.0406 | -0.025 | inactive | BRAF
0.339 | 0.965 | -0.122 | -0.121 | -0.06 | inactive | BCKDK
0.726 | 1 | -0.074 | -0.056 | -0.0259 | inactive | CDK15
-0.117 | 0.924 | -0.249 | -0.11 | -0.1 | inactive | CUL1
0.649 | 0.993 | -0.11 | -0.0957 | -0.0327 | inactive | LRRK2
0.112 | 0.945 | -0.129 | -0.14 | 0.0235 | inactive | CTCF
0.00228 | 0.935 | -0.18 | -0.115 | -0.0896 | inactive | ROS1
0.0225 | 0.936 | -0.172 | -0.147 | -0.0878 | inactive | MAP2K6
0.658 | 0.994 | -0.135 | -0.0949 | -0.0319 | inactive | SMAD4
-0.13 | 0.923 | -0.0511 | -0.0888 | -0.0351 | inactive | PHKB
0.726 | 1 | -0.296 | -0.0893 | -0.0259 | inactive | HIPK2
0.726 | 1 | -0.217 | -0.0893 | -0.0259 | inactive | PKN1
0.644 | 0.993 | -0.117 | -0.0961 | -0.0331 | inactive | IP6K2
-1.22 | 0.824 | -0.145 | -0.223 | -0.161 | inactive | CAMKV
-1.26 | 0.821 | 0.00906 | -0.0588 | -0.0419 | inactive | TSSK6
0.726 | 1 | -0.239 | -0.0893 | -0.0259 | inactive | PAK6
0.726 | 1 | -0.114 | -0.0893 | -0.0259 | inactive | HSPB8
-0.672 | 0.874 | 0.00118 | -0.0879 | 0.0739 | inactive | RPS6KA2
-1.16 | 0.829 | -0.0163 | -0.11 | -0.13 | inactive | DGKK
0.602 | 0.989 | -0.21 | -0.0995 | -0.0232 | inactive | TBX3
-0.626 | 0.878 | -0.0163 | 0.0996 | 0.109 | inactive | PRKCZ
-0.209 | 0.916 | -0.211 | -0.0654 | -0.0862 | inactive | EIF2AK4
-0.139 | 0.922 | -0.0487 | -0.0885 | -0.0531 | inactive | EGFR
-0.0911 | 0.926 | -0.0822 | -0.112 | -0.0444 | inactive | LTK
-0.986 | 0.845 | -0.197 | -0.11 | -0.0964 | inactive | MAP4K3
0.583 | 0.987 | -0.024 | -0.101 | -0.0385 | inactive | ERBB3
0.726 | 1 | -0.123 | -0.0508 | -0.0259 | inactive | AMER1
0.726 | 1 | -0.269 | -0.0893 | -0.0259 | inactive | KALRN

Hits, of those listed so far:
robust z-score, siRNA alone | viability, knock-down alone (DMSO) (fraction of control) | synergy score with BYL719 | synergy score with cetuximab | synergy score with trametinib | activity call | gene symbol
-3.12 | 0.653 | -0.0512 | -0.2 | -0.0916 | active | CTNNB1
